The results in this text go back to PubChem BioAssay AID1347423 (Functional Genomics Laboratory (NCATS/FGL), 2020).

Hit rate of the full screen: of about 52,000 sequences, about 210 (0.4%) were called active.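 Rule for the calls: active = gene whose silencing raises cell survival under the drug, median off-target-corrected z-score across its silencing RNAs 2 or more; inactive = the rest.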 Some of the results follow.

A short description of this experiment: Resistance to Poly (ADP-Ribose) Polymerase inhibitor: Gene Identification via Genome-wide siRNA Screen. The conditions noted are these: mouse BRCA2 R2336H ES cells, olaparib, CellTiter-Glo viability; stronger effect = higher value. The gist of the method: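 Genome-wide siRNA screen (3 siRNAs/gene, 20 nM) in mouse ES cells carrying hypomorphic BRCA2 R2336H; olaparib 500 nM added 48 h post-transfection, CellTiter-Glo viability 72 h later. Normalized to plate-median negative control; MAD z-scores, gene median, seed-adjusted.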
For orientation: Cellular ATP, detected with luciferase, serves as a proxy for viable cell number.
CGCGACAGAAUCAGUACAATT against Hnf4g: the z-score is inactive: 1.11.

For “GGGUGAAUAAAUAAAGCUGTT against 2610040C18Rik”, the z-score is inactive: -0.451.

Turning to GAGAAACAACAAUUUGGGATT against LOC435023, the z-score is inactive: -0.531.

As to GGAAGAUUCAGCCUUUAGATT against Hcr, the z-score is inactive: 0.96.

For GGUACUUUGAUGACGAGUUTT against Akt2, the z-score was inactive: -0.562.

Regarding CGAUGAAUUUAGGAGAUCUTT against AF397014, the z-score is inactive: -0.19.

For the sequence GGCAAAUUGAGUUUUAGCATT against Waspip, the z-score is inactive: -0.0406.

Turning to GGGCCAGCUUUCAAUAUUGTT against Man2a1, the z-score is inactive: -0.63.

Regarding GCUCGAAAUGACGUGUACATT against Gna-rs1, the z-score was inactive: -0.944.

Take GGAUACUGGCAUGAAAUUGTT against Slc22a2: the z-score was inactive: -0.619.

Consider CGAUGGUCGAAGGAUUGUCTT against Tnfsf4, for which the z-score is inactive: -0.645.

As for CCAUUUCAGGCAUGAAGAATT against Tsga10, the z-score was inactive: -1.3.

As to GGGAUGCUGUAGAUAUUAATT against Fcgr2b, the z-score was inactive: 0.654.

Consider GGUGCUCGAAAACUGGUUCTT against Tbrg1, for which the z-score was inactive: 1.38.

Consider GGUGUUCAGAUGGUUCCCATT against Exosc1, for which the z-score is inactive: -1.62.

For GCACUUAAGACCAAGCCUCTT against Odd1, the z-score is inactive: -0.0829.

Consider GCCCAAAGUGAUUCACUAGTT against Acvrl1, for which the z-score is inactive: 0.34.

For “GCCUCUGAAAGUGUAAUUATT against 1700039D13Rik”, the z-score was inactive: -0.85.

Regarding GGAUGUUCUGAGGACCAACTT against Cct6a, the z-score is inactive: -3.2.

CCCUAUUGAGAAGUGUAUGTT against Il4i1: the z-score was inactive: 0.79.

Take “GCUAACUCUUCGGCAGGAATT against Scospondin”: the z-score is inactive: -0.989.

For the sequence GGAUUUGGAUUGACCCUUGTT against Grwd1, the z-score is inactive: -1.11.

As to “CCAACCUCCCAUUCUGAAUTT against 4732467L16Rik”, the z-score is inactive: 1.47.

Regarding GGACUGCUUUUGCUAUGAATT against Cys1, the z-score is inactive: -0.657.

Take GAUCUUAGCUGUGUGUGUGTT against Cxcl4: the z-score was inactive: 0.39.

Take GGUGAUCCAAGACUUCCAGTT against Actl6b: the z-score was inactive: -0.0937.

As to GGAUGUCUUGCUUCACCGUTT against Ripk5, the z-score was inactive: -1.33.

In the case of CCGGCUAAAUCACCGUGCUTT against Skd3, the z-score is inactive: 0.364.

UUGUCAUUCACUUGAUGAATT against Hist3h2ba: the z-score was inactive: 0.612.

For GGCAUCAUCGCCAUCUUCATT against ORF31, the z-score is inactive: -0.384.

On to GGAACUCACUUACUUAUGUTT against Prrx2, for which the z-score is inactive: 0.0726.

As to “GCUCCACCGAGAAAUUACUTT against 2610529C04Rik”, the z-score is inactive: -0.711.

Take GGACCACCAGACAUUCUUUTT against Lrp12: the z-score is inactive: 0.65.

“GGAAGAACAACGAAGAAACTT against 2810484M10Rik”: the z-score is inactive: -0.379.

Consider GCCUGUGCUUAAUUUAAGGTT against Yme1l1, for which the z-score is inactive: 0.219.

For the sequence GGAUCAAUGCAUGGAAUUCTT against Ugdh, the z-score was inactive: 2.32.

Regarding GGUCAGAUAAAACUCUUCATT against Bmi1, the z-score is inactive: 1.33.

On to GGAUUUUGCUCAGACGACATT against Taf1a, for which the z-score was inactive: -1.48.

With GGUAACCACAGUAGUGGCATT against Gsk3b, the z-score was inactive: -0.448.

Turning to GGAUGACUUCUUCAAGCCATT against BC016495, the z-score is inactive: 2.41.

For GGAAAAAUCAUGGAGAAAATT against Dhodh, the z-score is inactive: 0.455.

As to “GCUCUUGACUCACUCAGCATT against 9430083I22”, the z-score is inactive: -1.19.

As to ACCGAAAAUCUUCAGUACUTT against LOC544988, the z-score was inactive: 0.484.

As to GGCGAAAAUUACUCGAAAGTT against Penk1, the z-score is inactive: 0.171.

As to GGUCUUAAGGAGAAAUGAATT against Cbln2, the z-score is inactive: -0.576.

For the sequence GGAUCACAGUGGUUCAGAATT against Snai2, the z-score was inactive: -2.89.

Turning to GGUCCUCCCAUAAUCUAGUTT against BC046404, the z-score is inactive: 1.46.

As to GCUCCUCGAAUCCCUGUAGTT against Per3, the z-score is inactive: 1.64.

CCAGUUCAAGAGACUCGUATT against Dio1: the z-score is inactive: -0.484.

For GGUCAUCACUUAUUACCCATT against Ptges2, the z-score is inactive: 0.133.

Turning to CCAUCCCAUAUAACGAUCUTT against Oat, the z-score is inactive: 0.0491.

Turning to GCAGACUGAAUAUUGAAAGTT against Cry1, the z-score is inactive: -0.36.

In the case of CCCAUAGAUUUUUUGACAGTT against Hbb-y, the z-score is inactive: 1.34.

With GGACUCCAGAGAAAGAGGCTT against Tcf15, the z-score is inactive: 0.357.

With GCUGUAUGAAGUUAGAUUUTT against Car8, the z-score is inactive: 1.58.

As to GGUUUGUUUUACAAAAUGCTT against Zdhhc5, the z-score was inactive: 0.648.

Regarding GGUUGAACCCACUCUGCAATT against Olfr1113, the z-score was inactive: -2.16.

As for CCAACACUGAGCUCAGAAGTT against Igfbp2, the z-score was inactive: 0.322.

On to GCUUUAGUACAGGCCUCUATT against Pols, for which the z-score is inactive: -1.09.

Regarding GCACUUACCCACUCUGAACTT against Gt4-1, the z-score is inactive: -0.497.

As for GGUUUUUCCAGCUGUUUUCTT against Olfr618, the z-score was inactive: 2.04.

Take GCUCUUCAUAACUCUUGCUTT against Olfr1392: the z-score was inactive: -0.036.

For GCUUGUGCGAGUGUUGGAUTT against Has1, the z-score was inactive: 0.514.

Regarding GCACCCGGCACUAGAAAAATT against Shoc2, the z-score is inactive: 0.638.

On to GGCACAAUCACAUCACAGCTT against Lrrtm2, for which the z-score was inactive: 0.159.

With CGAGAUCAGAAAACUGACUTT against Cpa4, the z-score is inactive: 0.314.

In the case of UGACUGGGCUAAUAGGAGATT against Olfr1469, the z-score is inactive: 0.895.
